PubChem BioAssay AID1259405 – NCATS | 2018
The deposit covers about 50,000 reagents; this is a random part of them. In the full data, about 4,000 (8%) are marked active. 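Mouse siRNA library applied to hamster cells; one well for each siRNA.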 Reagents against one gene are numbered here.

- Purpose: 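Silenced genes that increase secreted GFP made by CHO cells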 (primary screen)
- Cells: Chinese hamster CHO-K1 ovary cells with stable secreted eGFP expression
- Reagents: single siRNA against mouse genes, 0.8 pmol siRNA per well (2 µl of 400 nM stock)
- Timing: 3 days
- Measurement: 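Percent of the per-plate non-targeting control median for intracellular GFP per well by laser scanning cytometry and for cell viability by ATP luminescence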
- Scale: GFP, % of control: higher = more GFP per well, higher productivity; viability (ATP), % of control: higher = more viable cells (more ATP)
- Hit rule: 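Called active when intracellular GFP, relative to negative control, is at or above 120%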

no.	gene knocked down	siRNA no.	GFP, % of control	viability (ATP), % of control	call
1	Mid1 (GeneID 17318)	1	63	81.7	inactive
2	Mid1 (GeneID 17318)	2	63.5	75.9	inactive
3	Mid1 (GeneID 17318)	3	61.4	64.8	inactive
4	Vps16 (GeneID 80743)	1	85.4	78.4	inactive
5	Vps16 (GeneID 80743)	2	71.1	81.1	inactive
6	Vps16 (GeneID 80743)	3	56.3	52.2	inactive
7	Inhbe (GeneID 16326)	1	32.3	48	inactive
8	Inhbe (GeneID 16326)	2	58.9	66.2	inactive
9	Inhbe (GeneID 16326)	3	95.1	77.1	inactive
10	Rce1 (GeneID 19671)	1	67.8	60.1	inactive
11	Rce1 (GeneID 19671)	2	87	42.7	inactive
12	Rce1 (GeneID 19671)	3	87.2	95.6	inactive
13	Dkkl1 (GeneID 50722)	1	68.8	80.6	inactive
14	Dkkl1 (GeneID 50722)	2	132	73.7	active
15	Dkkl1 (GeneID 50722)	3	55.9	55.2	inactive
16	Klhl13 (GeneID 67455)	1	79.8	89.4	inactive
17	Klhl13 (GeneID 67455)	2	86.3	74.8	inactive
18	Klhl13 (GeneID 67455)	3	79.9	91.4	inactive
19	Csde1 (GeneID 229663)	1	60.6	79.9	inactive
20	Csde1 (GeneID 229663)	2	71.9	75.6	inactive
21	Csde1 (GeneID 229663)	3	60.5	77.9	inactive
22	Slc6a20a (GeneID 102680)	1	88.3	79.1	inactive
23	Slc6a20a (GeneID 102680)	2	93	83	inactive
24	Slc6a20a (GeneID 102680)	3	92.7	75.4	inactive
25	Ube2d2a (GeneID 56550)	1	79.9	70.9	inactive
26	Ube2d2a (GeneID 56550)	2	96	79.4	inactive
27	Ube2d2a (GeneID 56550)	3	81.6	106	inactive
28	Cpeb4 (GeneID 67579)	1	85.8	82.9	inactive
29	Cpeb4 (GeneID 67579)	2	94.6	67.2	inactive
30	Cpeb4 (GeneID 67579)	3	69.5	75.2	inactive
31	Mplkip (GeneID 66308)	1	96.1	69.8	inactive
32	Mplkip (GeneID 66308)	2	109	89.8	inactive
33	Mplkip (GeneID 66308)	3	87.1	74.1	inactive
34	Fzd1 (GeneID 14362)	1	106	168	inactive
35	Fzd1 (GeneID 14362)	2	105	97.6	inactive
36	Cds2 (GeneID 110911)	1	107	104	inactive
37	Cds2 (GeneID 110911)	2	105	116	inactive
38	Cds2 (GeneID 110911)	3	126	93.8	active
39	Dnttip2 (GeneID 99480)	1	77	75.4	inactive
40	Dnttip2 (GeneID 99480)	2	55.2	53.1	inactive
41	Dnttip2 (GeneID 99480)	3	92.5	87.5	inactive
42	B4gat1 (GeneID 108902)	1	135	104	active
43	B4gat1 (GeneID 108902)	2	25.8	65.8	inactive
44	B4gat1 (GeneID 108902)	3	120	109	inactive
45	Atad2b (GeneID 320817)	1	73.5	56.9	inactive
46	Atad2b (GeneID 320817)	2	88.9	93.3	inactive
47	Atad2b (GeneID 320817)	3	69.7	50.8	inactive
48	Serhl (GeneID 68607)	1	50.4	27.3	inactive
49	Serhl (GeneID 68607)	2	107	91.2	inactive
50	Serhl (GeneID 68607)	3	51.8	68.8	inactive
51	Magee1 (GeneID 107528)	1	46.3	51.4	inactive
52	Magee1 (GeneID 107528)	2	54.8	69	inactive
53	Magee1 (GeneID 107528)	3	120	56.8	active
54	Aldh1a1 (GeneID 11668)	1	122	123	active
55	Aldh1a1 (GeneID 11668)	2	45.9	58.5	inactive
56	Aldh1a1 (GeneID 11668)	3	64.3	74.6	inactive
57	Klk1b5 (GeneID 16622)	1	85.3	45.7	inactive
58	Klk1b5 (GeneID 16622)	2	89.9	77.7	inactive
59	Klk1b5 (GeneID 16622)	3	72.7	83.6	inactive
60	Dph1 (GeneID 116905)	1	105	108	inactive
61	Dph1 (GeneID 116905)	2	102	112	inactive
62	Dph1 (GeneID 116905)	3	132	77.2	active
63	Hdac8 (GeneID 70315)	1	34.9	45	inactive
64	Hdac8 (GeneID 70315)	2	98.8	121	inactive
65	Saa4 (GeneID 20211)	1	49.7	38.8	inactive
66	Saa4 (GeneID 20211)	2	110	88.4	inactive
67	Saa4 (GeneID 20211)	3	77.2	48	inactive
68	Crygc (GeneID 12966)	1	114	96.7	inactive
69	Crygc (GeneID 12966)	2	84	92.2	inactive
70	Crygc (GeneID 12966)	3	123	103	active
71	Pycr2 (GeneID 69051)	1	78.5	80.6	inactive
72	Pycr2 (GeneID 69051)	2	119	54.1	inactive
73	Pycr2 (GeneID 69051)	3	76.4	79.4	inactive
74	Qrfprl (GeneID 243407)	1	81.1	73.2	inactive
75	Qrfprl (GeneID 243407)	2	68.2	88.9	inactive
76	Qrfprl (GeneID 243407)	3	61.7	46	inactive
77	Tcl1b3 (GeneID 27378)	1	60.1	70.1	inactive
78	Tcl1b3 (GeneID 27378)	2	96.4	79.9	inactive
79	Tcl1b3 (GeneID 27378)	3	133	104	active
80	Csnk2b (GeneID 13001)	1	50.5	96.3	inactive
81	Csnk2b (GeneID 13001)	2	85.6	85.1	inactive
82	Cd209b (GeneID 69165)	1	82.1	66.7	inactive
83	Cd209b (GeneID 69165)	2	95.4	94.3	inactive
84	Cd209b (GeneID 69165)	3	92.4	105	inactive
85	Aasdh (GeneID 231326)	1	93.6	65.6	inactive
86	Aasdh (GeneID 231326)	2	108	89.4	inactive
87	Aasdh (GeneID 231326)	3	91.1	102	inactive
88	Dao (GeneID 13142)	1	85.1	90.8	inactive
89	Dao (GeneID 13142)	2	31	33.5	inactive
90	Dao (GeneID 13142)	3	78.9	68.9	inactive
91	Lin9 (GeneID 72568)	1	73.7	75.5	inactive
92	Lin9 (GeneID 72568)	2	65.5	76.5	inactive
93	Fnbp4 (GeneID 55935)	1	43.3	45.8	inactive
94	Fnbp4 (GeneID 55935)	2	78.7	99.7	inactive
95	Fnbp4 (GeneID 55935)	3	80.2	81.4	inactive
96	Vmn1r67 (GeneID 171263)	1	93.6	72.3	inactive
97	Vmn1r67 (GeneID 171263)	2	91	71.3	inactive
98	Vmn1r67 (GeneID 171263)	3	55.7	90.5	inactive
99	Mlph (GeneID 171531)	1	52.7	58.1	inactive
100	Mlph (GeneID 171531)	2	87.1	71.1	inactive
101	Mlph (GeneID 171531)	3	80.8	68.6	inactive
102	Insr (GeneID 16337)	1	78.8	38.2	inactive
103	Trib1 (GeneID 211770)	1	107	96.4	inactive
104	Trib1 (GeneID 211770)	2	81.4	54	inactive
105	Trib1 (GeneID 211770)	3	69.7	64.4	inactive
106	Rbm26 (GeneID 74213)	1	68.1	80	inactive
107	Rbm26 (GeneID 74213)	2	69.2	87.6	inactive
108	Rbm26 (GeneID 74213)	3	62.5	61.1	inactive

14 of these entries, set out differently.
| gene knocked down | siRNA no. | GFP, % of control | viability (ATP), % of control | call |
| --- | --- | --- | --- | --- |
| Klhl13 (GeneID 67455) | 3 | 79.9 | 91.4 | inactive |
| Csde1 (GeneID 229663) | 1 | 60.6 | 79.9 | inactive |
| Csde1 (GeneID 229663) | 2 | 71.9 | 75.6 | inactive |
| Csde1 (GeneID 229663) | 3 | 60.5 | 77.9 | inactive |
| Slc6a20a (GeneID 102680) | 1 | 88.3 | 79.1 | inactive |
| Slc6a20a (GeneID 102680) | 2 | 93 | 83 | inactive |
| Slc6a20a (GeneID 102680) | 3 | 92.7 | 75.4 | inactive |
| Ube2d2a (GeneID 56550) | 1 | 79.9 | 70.9 | inactive |
| Ube2d2a (GeneID 56550) | 2 | 96 | 79.4 | inactive |
| Ube2d2a (GeneID 56550) | 3 | 81.6 | 106 | inactive |
| Cpeb4 (GeneID 67579) | 1 | 85.8 | 82.9 | inactive |
| Cpeb4 (GeneID 67579) | 2 | 94.6 | 67.2 | inactive |
| Cpeb4 (GeneID 67579) | 3 | 69.5 | 75.2 | inactive |
| Mplkip (GeneID 66308) | 1 | 96.1 | 69.8 | inactive |
